# Assay results: PubChem BioAssay AID445 (National Center for Advancing Translational Sciences (NCATS), 2006)
# The list shows a part of the results. The main result of the screen is listed elsewhere. These columns were measured beside it and carry no call. Compounds called inactive in the main read-out are mostly missing here. Words in brackets tell the shape of the fitted curve; partial curves, single points and poor fits give uncertain potencies.
# Assay: IkB Signaling
# Details: ABC-DLBCL IkBa-CBG/CBR dual luciferase ratio (green luciferase fused to IkBa over red control in OCI-Ly3 lymphoma cells), 4 h
# How it was run: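 Curves were fitted separately to fusion (green), unfused (red) and ratio luminescence, then classed by r2, magnitude and activity. Cells: OCI-Ly3, 4 h compound plus doxycycline at 37C; 10 uM MG-132 defined full response.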
# [1] = measured here: control luc red channel unless noted
compound,measurement,setting,value
Fc1ccc(-c2noc3ncnc(NCCc4ccc(Cl)cc4)c23)cc1,AC50,[1],"3.98 µM [falling, full curve]"
COc1cccc(CNC(=O)N2CCc3c(sc4c3CCCC4)C2c2ccc(F)cc2)c1 (stereo not drawn),AC50,[1],"12.6 µM [falling, partial curve]"
Cc1ccc(C)n1-c1ccc(N2CCOCC2)cc1,AC50,[1],"39.8 µM [rising, single point] [measured here: IkB-luc green channel]"
Cc1cccc(C(=O)NCCc2nc3ccccc3n2Cc2ccccc2Cl)c1,AC50,[1],"5.01 µM [falling, partial curve]"
COc1ccc(OC)c(C2C(C(=O)Nc3ccc(C)cc3C)=C(C)Nc3c(C(=O)Nc4ccc(F)cc4)cnn32)c1 (stereo not drawn),AC50,[1],"12.6 µM [falling, partial curve]"
Cc1cc(=O)n(Cc2cccc(Cl)c2)c2c1c(C)nn2C,AC50,[1],"3.98 µM [rising, single point]"
COC(=O)c1ccc(NC(=O)c2c(NCc3cccc(F)c3)sc3c2CCCC3)cc1,AC50,[1],"25.1 µM [falling, partial curve]"
CCC(Oc1ccccc1F)C(=O)Nc1cc(-c2ccccc2)no1 (stereo not drawn),AC50,[1],"39.8 µM [falling, single point]"
Cc1cccc(N2CCN(S(=O)(=O)c3cc(C(=O)Nc4ccc(Oc5ccccc5)cc4)ccc3F)CC2C)c1 (stereo not drawn),AC50,[1],"2 µM [falling, full curve]"
CCCCN(C)CCNC(=O)c1nn(-c2ccc(OC)c(Cl)c2)c(=O)c2c1c1ccccc1n2C,AC50,[1],"25.1 µM [falling, single point]"
O=C(NCc1cccs1)c1cc(-c2cccc(Cl)c2)on1,AC50,[1],"7.94 µM [falling, partial curve]"
OC(CN1C2=NCCN2c2ccccc21)c1ccc2c(c1)OCO2 (stereo not drawn),AC50,[1],"39.8 µM [rising, partial curve] [measured here: IkB-luc green channel]"
NCCSSCCN,AC50,[1],"25.1 µM [rising, partial curve, poor fit] [measured here: IkB-luc green channel]"
c1ccc(CCc2ccccc2-c2nc(-c3ccccn3)no2)cc1,AC50,[1],"5.01 µM [falling, partial curve]"
Cc1cccn2c(=O)c(C(=O)N3CCN(c4ccccc4F)CC3)cnc12,AC50,[1],"0.158 µM [rising, full curve]"
CCN(CC)c1ccc2cc(-c3nnc(Nc4ccc(C)cc4)s3)c(=O)oc2c1,AC50,[1],"0.0251 µM [rising, full curve, poor fit]"
COc1ccc2c(C)c(CCC(=O)NCCc3ccccc3)c(=O)oc2c1,AC50,[1],"20 µM [falling, single point]"
COC(=O)C1=C(CS(=O)(=O)c2ccc(C)cc2C)NC(=O)NC1c1ccc(C)cc1 (stereo not drawn),AC50,[1],"25.1 µM [falling, single point]"
Cc1cc2cc(CN(Cc3cccs3)Cc3nnnn3CC3CCCO3)c(=O)[nH]c2cc1C (stereo not drawn),AC50,[1],"12.6 µM [falling, partial curve]"
COc1ccc(-c2cc(C(=O)N3CCN(C(c4ccccc4)c4ccccc4)CC3)no2)cc1OC,AC50,[1],"3.98 µM [falling, partial curve]"
CCOc1ccccc1NC(=O)Cn1nnc(C(=O)NCc2cccs2)c1N,AC50,measured here: IkB-luc green channel,"2.51 µM [rising, full curve]"
same,AC50,measured here: control luc red channel,"1 µM [rising, full curve]"
CC(=O)N1c2ccccc2C(=O)C1N1CCN(c2ccc(Cl)cc2)CC1 (stereo not drawn),AC50,[1],"25.1 µM [falling, single point]"
Cc1cc(=O)[nH]c(S/C=C/c2ccccc2)n1,AC50,[1],"5.01 µM [falling, full curve]"
CCOC(=O)c1cc(OC(=O)c2ccccc2F)n(-c2ccccc2)n1,AC50,[1],"2 µM [rising, partial curve]"
Cc1ccccc1Nc1nn2c(=O)c3ccc(C(=O)NCC(C)c4ccccc4)cc3nc2s1 (stereo not drawn),AC50,[1],"25.1 µM [falling, partial curve]"
COC(=O)c1cc(NC(=O)CSc2nnc(CN3CCOCC3)n2C)ccc1Cl,AC50,[1],"10 µM [falling, partial curve]"
COc1ccc(S(=O)(=O)N(CC(=O)NCCSc2ccc(C)cc2)c2ccc(C)cc2)cc1,AC50,[1],"12.6 µM [falling, partial curve]"
CCOc1ccccc1NC(=O)CSc1c2c(nc3ccc(Cl)cc13)CCCC2,AC50,[1],"1.58 µM [falling, single point]"
CCc1c(-c2ccccc2)nc2ccccc2c1C(=O)NC(C)c1ccccc1 (stereo not drawn),AC50,[1],"31.6 µM [falling, partial curve]"
CCOC(=O)C1CCCN(S(=O)(=O)c2cc(-c3onc(C)c3C)ccc2OC)C1 (stereo not drawn),AC50,[1],"39.8 µM [falling, partial curve]"
CC(C)(C)C(=O)[C@@H]1[C@@H]2C(=O)N(c3ccc4c(c3)OCCO4)C(=O)[C@@H]2C2c3ccccc3C=CN21 (stereo partly drawn),AC50,[1],"7.94 µM [falling, partial curve]"
CCOc1ccccc1NC(=O)c1nc(S(=O)(=O)Cc2cccc(C)c2)ncc1Cl,AC50,[1],"7.94 µM [falling, full curve]"
CC1CCc2onc(C(=O)Nc3ccc(Cl)cc3)c2C1 (stereo not drawn),AC50,[1],"12.6 µM [falling, single point]"
COc1cccc(-c2nc(-c3ccc(Br)o3)no2)c1,AC50,[1],"0.1 µM [rising, full curve]"
COc1ccc(-c2cc(CCCC(=O)NCCc3cc(OC)ccc3OC)no2)cc1,AC50,[1],"10 µM [falling, partial curve]"
CCOc1ccccc1N1CCN(C(=O)Nc2ccc(F)c(Cl)c2)CC1,AC50,[1],"39.8 µM [falling, single point]"
Cc1nc2c(c(C)c1CCC(=O)NCc1ccc(F)cc1)c(=O)n(C)c(=O)n2C,AC50,[1],"3.98 µM [falling, partial curve, poor fit]"
Fc1ccccc1Nc1c2c(nc3ccccc13)CCC2,AC50,[1],"25.1 µM [falling, single point]"
CCN(Cc1ccncc1)S(=O)(=O)c1ccc(C(C)=O)cc1,AC50,[1],"15.8 µM [falling, partial curve]"
COc1cccc2cc(C(=O)N3CCN(c4cc(C)ccc4C)CC3)c(=O)oc12,AC50,[1],"31.6 µM [falling, single point]"
COc1ccc(-c2ccc(NS(=O)(=O)c3ccc(NC(C)=O)cc3)cc2)nn1,AC50,[1],"3.98 µM [falling, full curve]"
COc1ccc(OC)c(NC(=O)c2c(NCc3cccs3)sc3c2CCCCC3)c1,AC50,[1],"20 µM [falling, partial curve]"
CCN(CC)c1ccc(NC(=O)c2c(C)nn(-c3ccc(F)cc3)c2-n2cccc2)c(C)c1,AC50,[1],"12.6 µM [falling, partial curve]"
COc1cccc(CN(C(=O)COc2ccc(Cl)c(C)c2)C2CCS(=O)(=O)C2)c1 (stereo not drawn),AC50,[1],"10 µM [falling, partial curve]"
Cc1ccc(Sc2ccc(N3CCC(C(=O)Nc4cc(C)cc(C)c4)CC3)nn2)cc1,AC50,[1],"3.16 µM [falling, full curve]"
Cc1ccc(C2CC(=O)n3nc(-c4ccc(Cl)cc4)nc3S2)cc1 (stereo not drawn),AC50,[1],"12.6 µM [falling, partial curve]"
Cc1c(Cl)cccc1-n1ncc(C(=O)NCCN2CCN(C)CC2)c1C1CCN(C(=O)OC(C)(C)C)CC1,AC50,[1],"39.8 µM [falling, single point]"
O=C(Nc1ccc(Cl)cc1)c1cnn2c1NC(c1ccccc1)=CC2c1ccccc1 (stereo not drawn),AC50,[1],"12.6 µM [falling, partial curve]"
CCOC(=O)c1scc(-c2ccccc2)c1S(=O)(=O)N1CCN(c2ccc(Cl)cc2)CC1,AC50,[1],"0.501 µM [falling, full curve, poor fit]"
Cc1ccc(S(=O)(=O)NC2OC(=O)C(Cl)=C2Cl)cc1 (stereo not drawn),AC50,[1],"39.8 µM [rising, single point] [measured here: IkB-luc green channel]"
O=C(CSc1ccc(Cl)cc1)Nc1ccc(N2CCN(C(=O)c3ccco3)CC2)cc1,AC50,[1],"3.98 µM [falling, full curve]"
c1ccc2oc(SCc3cn4ccccc4n3)nc2c1,AC50,[1],"20 µM [falling, partial curve, poor fit]"
COc1cccc(N2CCN(C(=O)c3cnc4c(-c5ccccc5)c(C)nn4c3C)CC2)c1,AC50,[1],"20 µM [falling, single point]"
Cc1ccccc1NC(=O)NCCc1c[nH]c2ccccc12,AC50,[1],"12.6 µM [falling, partial curve]"
COc1ccc(S(=O)(=O)Cc2ccc(C(=O)N3CCN(c4ccc(Cl)cc4)CC3)o2)cc1,AC50,[1],"10 µM [falling, partial curve]"
O=C1CC(c2cccs2)Sc2nc3ccccc3n21 (stereo not drawn),AC50,[1],"15.8 µM [falling, partial curve]"
Cc1ccccc1Nc1ncnc2c1cnn2-c1ccccc1,AC50,[1],"31.6 µM [falling, partial curve]"
COC(=O)c1cc(NS(=O)(=O)c2ccc3c(c2)OCCO3)ccc1Cl,AC50,[1],"12.6 µM [falling, single point]"
CS(=O)c1nc(-c2ccc(Br)cc2)cc(-c2ccccc2)c1C#N (stereo not drawn),AC50,[1],"3.16 µM [falling, full curve]"
O=C(Nc1nc(-c2cccs2)cs1)c1ccc(S(=O)(=O)N2CCCC2)cc1,AC50,[1],"10 µM [falling, partial curve]"
CCOc1ccccc1NC(=O)CSc1nc2ccccc2nc1N1CCOCC1,AC50,[1],"7.94 µM [falling, partial curve]"

# Retrieved one by one from the list above, five records:
compound,measurement,setting,value
COc1ccc(OC)c(NC(=O)c2c(NCc3cccs3)sc3c2CCCCC3)c1,AC50,[1],"20 µM [falling, partial curve]"
COc1ccc(-c2cc(C(=O)N3CCN(C(c4ccccc4)c4ccccc4)CC3)no2)cc1OC,AC50,[1],"3.98 µM [falling, partial curve]"
Fc1ccccc1Nc1c2c(nc3ccccc13)CCC2,AC50,[1],"25.1 µM [falling, single point]"
COC(=O)C1=C(CS(=O)(=O)c2ccc(C)cc2C)NC(=O)NC1c1ccc(C)cc1 (stereo not drawn),AC50,[1],"25.1 µM [falling, single point]"
Fc1ccc(-c2noc3ncnc(NCCc4ccc(Cl)cc4)c23)cc1,AC50,[1],"3.98 µM [falling, full curve]"
